According to PMC11612967:
Results are given in words; binding and its absence hold for the method and conditions named. In cells and extracts the contact can be indirect. Some binding calls cover weakened binding; strength is not graded here.

Columns and labels:
Test in all cases: pull-down; S. cerevisiae Smc5/6 subunits co-expressed in E. coli Rosetta (DE3), one subunit with a Twin-Strep tag (N- or C-terminal); clarified lysate on Strep-Tactin Sepharose, 1 h at 4°C, 50 mM Tris-HCl pH 7.5, 300 mM NaCl, 5% glycerol; eluted with 2.5 mM desthiobiotin; Coomassie-stained SDS-PAGE
[1] = target: T1, S. cerevisiae Nse1 (S. cerevisiae) (UniProt Q07913)
T1 sequence: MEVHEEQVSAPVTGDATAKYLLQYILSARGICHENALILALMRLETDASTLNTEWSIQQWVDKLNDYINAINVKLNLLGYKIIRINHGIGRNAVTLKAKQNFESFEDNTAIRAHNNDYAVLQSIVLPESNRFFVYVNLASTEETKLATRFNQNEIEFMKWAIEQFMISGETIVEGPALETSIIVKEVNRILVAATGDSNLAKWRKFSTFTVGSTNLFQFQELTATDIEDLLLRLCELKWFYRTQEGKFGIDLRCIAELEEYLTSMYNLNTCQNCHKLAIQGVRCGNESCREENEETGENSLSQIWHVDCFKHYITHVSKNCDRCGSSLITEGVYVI

[2] = target: T2, S. cerevisiae Nse2 (S. cerevisiae) (UniProt P38632)
T2 sequence: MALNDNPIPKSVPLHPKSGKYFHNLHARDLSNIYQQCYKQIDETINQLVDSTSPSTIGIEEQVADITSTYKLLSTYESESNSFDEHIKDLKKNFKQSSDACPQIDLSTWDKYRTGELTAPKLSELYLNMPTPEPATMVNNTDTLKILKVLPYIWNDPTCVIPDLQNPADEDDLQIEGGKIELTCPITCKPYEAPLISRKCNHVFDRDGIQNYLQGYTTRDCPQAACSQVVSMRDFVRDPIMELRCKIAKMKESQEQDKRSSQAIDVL

[3] = target: T3, S. cerevisiae Nse3 (S. cerevisiae) (UniProt Q05541)
T3 sequence: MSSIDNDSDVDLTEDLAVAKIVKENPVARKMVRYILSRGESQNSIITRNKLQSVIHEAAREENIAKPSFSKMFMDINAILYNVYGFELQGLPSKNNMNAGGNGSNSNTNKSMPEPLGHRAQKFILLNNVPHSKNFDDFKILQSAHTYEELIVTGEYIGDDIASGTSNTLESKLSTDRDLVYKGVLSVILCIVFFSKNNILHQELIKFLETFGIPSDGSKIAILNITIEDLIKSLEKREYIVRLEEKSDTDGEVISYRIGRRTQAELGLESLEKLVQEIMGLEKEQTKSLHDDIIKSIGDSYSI

[4] = target: T4, S. cerevisiae Nse4 (S. cerevisiae) (UniProt P43124)
T4 sequence: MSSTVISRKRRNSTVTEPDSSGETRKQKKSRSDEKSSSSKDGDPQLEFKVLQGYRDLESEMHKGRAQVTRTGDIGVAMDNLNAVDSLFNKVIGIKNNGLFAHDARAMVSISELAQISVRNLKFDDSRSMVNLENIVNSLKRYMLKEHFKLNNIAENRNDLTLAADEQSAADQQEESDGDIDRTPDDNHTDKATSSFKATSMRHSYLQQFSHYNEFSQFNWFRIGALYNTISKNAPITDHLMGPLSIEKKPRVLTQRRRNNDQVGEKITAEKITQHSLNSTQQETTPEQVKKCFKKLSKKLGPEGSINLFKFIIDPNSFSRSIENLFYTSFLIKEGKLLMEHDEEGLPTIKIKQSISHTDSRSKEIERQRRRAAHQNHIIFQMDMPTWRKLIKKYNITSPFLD

[5] = target: T5, S. cerevisiae Smc5 (S. cerevisiae) (UniProt Q08204)
T5 sequence: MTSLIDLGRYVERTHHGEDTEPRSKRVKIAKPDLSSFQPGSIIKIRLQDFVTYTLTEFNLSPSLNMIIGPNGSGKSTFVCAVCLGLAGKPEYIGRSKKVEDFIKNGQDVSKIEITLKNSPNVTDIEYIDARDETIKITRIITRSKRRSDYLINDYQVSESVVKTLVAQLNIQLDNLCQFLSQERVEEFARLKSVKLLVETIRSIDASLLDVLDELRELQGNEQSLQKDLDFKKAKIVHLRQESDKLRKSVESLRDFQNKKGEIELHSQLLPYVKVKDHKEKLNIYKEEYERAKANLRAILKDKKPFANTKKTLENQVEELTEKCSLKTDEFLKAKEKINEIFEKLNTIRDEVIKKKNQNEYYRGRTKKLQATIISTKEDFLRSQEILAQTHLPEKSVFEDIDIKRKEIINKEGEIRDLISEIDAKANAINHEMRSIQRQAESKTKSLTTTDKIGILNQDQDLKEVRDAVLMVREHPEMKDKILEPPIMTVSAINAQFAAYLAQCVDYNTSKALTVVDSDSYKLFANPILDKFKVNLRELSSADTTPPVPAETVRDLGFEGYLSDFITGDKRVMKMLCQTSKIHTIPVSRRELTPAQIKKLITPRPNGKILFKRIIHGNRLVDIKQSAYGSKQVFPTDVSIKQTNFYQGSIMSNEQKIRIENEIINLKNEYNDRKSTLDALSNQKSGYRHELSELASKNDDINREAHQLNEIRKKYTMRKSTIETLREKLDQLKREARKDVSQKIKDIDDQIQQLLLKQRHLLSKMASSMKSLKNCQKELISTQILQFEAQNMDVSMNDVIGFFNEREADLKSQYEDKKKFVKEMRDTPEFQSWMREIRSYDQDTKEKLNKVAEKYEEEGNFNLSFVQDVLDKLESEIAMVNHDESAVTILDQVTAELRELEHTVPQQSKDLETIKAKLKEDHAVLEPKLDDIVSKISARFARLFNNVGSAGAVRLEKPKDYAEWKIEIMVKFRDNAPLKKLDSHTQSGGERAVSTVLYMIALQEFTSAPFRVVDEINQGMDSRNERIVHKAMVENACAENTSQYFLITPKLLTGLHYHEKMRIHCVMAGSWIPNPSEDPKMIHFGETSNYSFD

Measured: binding

B1: S. cerevisiae Smc6 (protein, UniProt Q12749 1-1114)
chain: MISTTISGKRPIEQVDDELLSLTAQQENEEQQQQRKRRRHQFAPMTQFNSNTLDEDSGFRSSSDVATADQDNFLEESPSGYIKKVILRNFMCHEHFELELGSRLNFIVGNNGSGKSAILTAITIGLGAKASETNRGSSLKDLIREGCYSAKIILHLDNSKYGAYQQGIFGNEIIVERIIKRDGPASFSLRSENGKEISNKKKDIQTVVDYFSVPVSNPMCFLSQDAARSFLTASTSQDKYSHFMKGTLLQEITENLLYASAIHDSAQENMALHLENLKSLKAEYEDAKKLLRELNQTSDLNERKMLLQAKSLWIDVAHNTDACKNLENEISGIQQKVDEVTEKIRNRQEKIERYTSDGTTIEAQIDAKVIYVNEKDSEHQNARELLRDVKSRFEKEKSNQAEAQSNIDQGRKKVDALNKTIAHLEEELTKEMGGDKDQMRQELEQLEKANEKLREVNNSLVVSLQDVKNEERDIQHERESELRTISRSIQNKKVELQNIAKGNDTFLMNFDRNMDRLLRTIEQRKNEFETPAIGPLGSLVTIRKGFEKWTRSIQRAISSSLNAFVVSNPKDNRLFRDIMRSCGIRSNIPIVTYCLSQFDYSKGRAHGNYPTIVDALEFSKPEIECLFVDLSRIERIVLIEDKNEARNFLQRNPVNVNMALSLRDRRSGFQLSGGYRLDTVTYQDKIRLKVNSSSDNGTQYLKDLIEQETKELQNIRDRYEEKLSEVRSRLKEIDGRLKSTKNEMRKTNFRMTELKMNVGKVVDTGILNSKINERKNQEQAIASYEAAKEELGLKIEQIAQEAQPIKEQYDSTKLALVEAQDELQQLKEDINSRQSKIQKYKDDTIYYEDKKKVYLENIKKIEVNVAALKEGIQRQIQNACAFCSKERIENVDLPDTQEEIKRELDKVSRMIQKAEKSLGLSQEEVIALFEKCRNKYKEGQKKYMEIDEALNRLHNSLKARDQNYKNAEKGTCFDADMDFRASLKVRKFSGNLSFIKDTKSLEIYILTTNDEKARNVDTLSGGEKSFSQMALLLATWKPMRSRIIALDEFDVFMDQVNRKIGTTLIVKKLKDIARTQTIIITPQDIGKIADIDSSGVSIHRMRDPERQNNSNFYN
binds: all assays above
